Values of other authors as cited in US20240343821A1, “OFATUMUMAB FOR TREATING PEDIATRIC MS” (NOVARTIS AG, priority 2021, published 2024).
At least one structure is not confirmed: it was looked up by name or label, or the drawing left a doubt.

Details: TERIKIDS, 166 pediatric patients; cited from earlier work

In the case of `C/C(O)=C(\C#N)C(=O)Nc1ccc(C(F)(F)F)cc1` [teriflunomide], the “primary endpoint time to first clinical relapse” value is given as “did not reach the statistical significance”.
